The text below walks through data of PMC6978347.

Chains of the proteins cited; added tags and fusions are not shown. Residues count along the entry.
UniProt Q05513, residues 11-101: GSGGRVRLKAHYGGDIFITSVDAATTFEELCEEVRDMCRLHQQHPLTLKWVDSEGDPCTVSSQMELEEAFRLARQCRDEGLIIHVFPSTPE

No constants are given. Whether binding was seen depends on the method and setting.

The assay has as its target PKCζ^11–101 (pKCζ–PB1) (human) (UniProt Q05513). Briefly: co-sedimentation; sedimentation (pelletation) assay of single purified PB1 domains by ultracentrifugation; soluble and pellet fractions on SDS-PAGE; both purified.

For the substance “PKCζ^11–101 (pKCζ–PB1) (from UniProt Q05513 11-101) (domain or fragment)”, the binding result is given as “no binding”.
